Here are results for 1 compound from PubChem BioAssay AID588649 (The Scripps Research Institute Molecular Screening Center, 2011).

The subject of the assay is Fam108b (ABHD17B) [Mus musculus]. Briefly: mouse ABHD17B hydrolase inhibitors – biochemical, gel-based ABPP, soluble recombinant form, HTS hits, late-stage follow-up (AID 588649). As to conditions: fluorophosphonate probe, at 20 µM, hits give high values.

Most of the hits are listed elsewhere, so they are rarer here than in the full data. Calls of active or inactive are those of the source. No stated cut-off is given here; in the data, active means inhibition above about 40%; inactive means the rest.

As to `C=CCn1c(=S)[nH]c2scc(-c3ccco3)c2c1=O`, the inhibition – broadly, the drop in the measured response relative to a control, in per cent – is inactive: 25%.
